Measurements reported in PMC7206099.

The chains behind the UniProt entries cited, without tags or fusion partners.
UniProt Q14694: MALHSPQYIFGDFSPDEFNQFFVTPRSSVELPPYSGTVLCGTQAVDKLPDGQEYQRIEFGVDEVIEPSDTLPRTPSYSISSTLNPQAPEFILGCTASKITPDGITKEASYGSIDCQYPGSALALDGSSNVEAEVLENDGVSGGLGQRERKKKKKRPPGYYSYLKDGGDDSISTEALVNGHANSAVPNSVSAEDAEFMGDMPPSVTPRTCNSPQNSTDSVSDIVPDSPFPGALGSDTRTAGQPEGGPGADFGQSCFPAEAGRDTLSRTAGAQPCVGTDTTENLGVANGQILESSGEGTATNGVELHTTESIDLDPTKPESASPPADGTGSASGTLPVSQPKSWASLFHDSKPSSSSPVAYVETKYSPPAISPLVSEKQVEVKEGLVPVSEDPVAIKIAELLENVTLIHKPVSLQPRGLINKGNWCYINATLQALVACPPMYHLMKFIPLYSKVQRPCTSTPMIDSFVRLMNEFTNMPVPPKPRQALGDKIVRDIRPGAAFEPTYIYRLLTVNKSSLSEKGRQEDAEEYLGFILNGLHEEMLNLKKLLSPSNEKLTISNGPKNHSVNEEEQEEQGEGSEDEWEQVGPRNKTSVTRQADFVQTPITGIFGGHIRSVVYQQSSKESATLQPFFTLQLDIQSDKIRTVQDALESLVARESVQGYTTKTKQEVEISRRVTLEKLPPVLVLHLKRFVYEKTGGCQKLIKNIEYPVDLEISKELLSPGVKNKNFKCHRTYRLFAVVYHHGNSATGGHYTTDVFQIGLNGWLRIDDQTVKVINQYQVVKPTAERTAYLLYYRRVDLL
UniProt Q9UBN7: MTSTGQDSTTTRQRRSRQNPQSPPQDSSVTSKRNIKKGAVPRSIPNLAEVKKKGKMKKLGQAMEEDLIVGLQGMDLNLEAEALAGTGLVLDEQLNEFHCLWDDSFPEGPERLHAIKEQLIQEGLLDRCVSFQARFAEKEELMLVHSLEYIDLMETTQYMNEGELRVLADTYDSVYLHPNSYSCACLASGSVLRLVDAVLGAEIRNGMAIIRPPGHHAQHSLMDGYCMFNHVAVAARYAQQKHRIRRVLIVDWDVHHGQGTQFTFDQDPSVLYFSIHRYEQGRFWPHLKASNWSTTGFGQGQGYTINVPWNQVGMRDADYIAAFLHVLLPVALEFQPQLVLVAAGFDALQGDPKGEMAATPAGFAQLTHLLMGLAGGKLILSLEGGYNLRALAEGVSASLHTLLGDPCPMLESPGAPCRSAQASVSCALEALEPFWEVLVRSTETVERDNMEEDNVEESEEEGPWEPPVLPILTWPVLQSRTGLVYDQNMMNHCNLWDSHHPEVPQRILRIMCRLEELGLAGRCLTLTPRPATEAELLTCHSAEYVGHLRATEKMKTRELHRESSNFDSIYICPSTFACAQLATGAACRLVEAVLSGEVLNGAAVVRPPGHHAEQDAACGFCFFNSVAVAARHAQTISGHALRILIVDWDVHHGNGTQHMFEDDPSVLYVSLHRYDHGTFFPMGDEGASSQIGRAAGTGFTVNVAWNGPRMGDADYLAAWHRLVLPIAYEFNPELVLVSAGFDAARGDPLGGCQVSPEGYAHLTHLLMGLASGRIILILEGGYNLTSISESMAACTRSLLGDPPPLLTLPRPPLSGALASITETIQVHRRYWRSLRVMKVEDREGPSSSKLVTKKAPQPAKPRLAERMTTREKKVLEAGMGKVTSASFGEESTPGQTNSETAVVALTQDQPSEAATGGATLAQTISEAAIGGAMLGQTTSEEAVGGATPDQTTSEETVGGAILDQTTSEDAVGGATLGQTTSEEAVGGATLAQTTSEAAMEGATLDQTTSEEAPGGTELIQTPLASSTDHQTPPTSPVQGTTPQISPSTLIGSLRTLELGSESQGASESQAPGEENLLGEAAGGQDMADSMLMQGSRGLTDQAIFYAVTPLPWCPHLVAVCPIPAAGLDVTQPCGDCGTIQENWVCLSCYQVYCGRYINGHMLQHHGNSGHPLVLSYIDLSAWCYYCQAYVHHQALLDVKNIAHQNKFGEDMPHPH

Target: Flag-HA-USP10 (UniProt Q14694)
Assay: affinity purification with mass spectrometry; Flag-HA-USP10 stably expressed in H1299 cells; USP10-associated proteins purified and identified by LC-MS/MS

binding: binds
Substance: histone deacetylase 6 (HDAC6), endogenous (from UniProt Q9UBN7 1-1215)

Results are given in words; binding and its absence hold for the method and conditions named. In cells and extracts the contact can be indirect. These calls come from enrichment with a bait or labelling near it, and not all partners need be listed.
